Laboratory results: patent US7598260B2, “CDK-inhibitory pyrimidines, their production and use as pharmaceutical agents” (Bayer Schering Pharma Aktiengesellschaft, priority 2001, dated 2009)

Test system: MCF-7 cells
Assay: Proliferation assay, crystal violet staining (cell test), MCF-7
Type: cell-based
Settings: Homo sapiens, MCF7, comparison with known compounds
Procedure: Cultivated human tumor cells (as indicated) are flattened out at a density of 5000 cells/measuring point in a 96-hole multititer plate in 200 μl of the corresponding growth medium. After 24 hours, the cells of one plate (zero-point plate) are colored with crystal violet (see below), while the medium of the other plates is replaced by fresh culture medium (200 μl), to which the test substances are added at various concentrations (0 μm, as well as in the range of 0.01-30 μm; the final concentration of the solvent dimethyl sulfoxide is 0.5%). The cells are incubated for 4 days in the presence of test substances. The cell proliferation is determined by coloring the cells with crystal violet: the cells are fixed by adding 20 μl/measuring point of a 11% glutaric aldehyde solution for 15 minutes at room temperature. After three washing cycles of the fixed cells with water, the plates are dried at room temperature. The cells are colored by adding 100 μl/measuring point of a 0.1% crystal violet solution (pH is set at 3 by adding acetic acid). […] The extinction is determined by photometry at a wavelength of 595 nm. The change of cell growth, in percent, is calculated by standardization of the measured values to the extinction values of the zero-point plate (=0%) and the extinction of the untreated (0 μm) cells (=100%).

CCC(CO)Nc1nc(NCc2ccccc2)c2ncn(C(C)C)c2n1 (stereo not shown) [Roscovitine, reference compound]
IC50: 8 µM
